According to the supplement of paper PMC6411743:
± gives the standard deviation of the averaged measurements. The entries are a selection whose mix differs from that of the whole data set.

The chains behind the UniProt entries cited, without tags or fusion partners. Where a name states a change or a piece, a line headed by the entry shows the natural chain unless it says otherwise.
UniProt P15531, whole entry, looked up: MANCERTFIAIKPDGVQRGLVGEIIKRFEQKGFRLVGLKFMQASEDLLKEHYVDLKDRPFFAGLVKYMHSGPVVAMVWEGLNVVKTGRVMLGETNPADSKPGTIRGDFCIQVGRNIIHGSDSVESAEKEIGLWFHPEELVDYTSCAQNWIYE
UniProt P22392, whole entry, looked up: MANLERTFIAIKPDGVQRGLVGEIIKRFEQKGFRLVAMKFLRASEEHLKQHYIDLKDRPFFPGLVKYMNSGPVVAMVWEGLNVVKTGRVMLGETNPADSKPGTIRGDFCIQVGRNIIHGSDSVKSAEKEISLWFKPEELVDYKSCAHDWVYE
UniProt P07305, whole entry: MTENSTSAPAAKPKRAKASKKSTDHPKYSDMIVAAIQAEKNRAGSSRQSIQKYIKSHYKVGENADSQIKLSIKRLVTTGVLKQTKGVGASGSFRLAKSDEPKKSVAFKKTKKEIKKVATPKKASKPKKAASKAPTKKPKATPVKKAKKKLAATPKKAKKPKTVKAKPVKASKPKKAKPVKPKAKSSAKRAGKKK
UniProt P09429: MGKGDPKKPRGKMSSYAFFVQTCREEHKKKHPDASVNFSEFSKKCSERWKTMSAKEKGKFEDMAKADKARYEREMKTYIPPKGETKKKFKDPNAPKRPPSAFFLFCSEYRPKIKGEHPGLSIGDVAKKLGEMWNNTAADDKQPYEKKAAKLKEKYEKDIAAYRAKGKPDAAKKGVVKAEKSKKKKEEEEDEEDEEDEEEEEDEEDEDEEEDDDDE
UniProt P15927: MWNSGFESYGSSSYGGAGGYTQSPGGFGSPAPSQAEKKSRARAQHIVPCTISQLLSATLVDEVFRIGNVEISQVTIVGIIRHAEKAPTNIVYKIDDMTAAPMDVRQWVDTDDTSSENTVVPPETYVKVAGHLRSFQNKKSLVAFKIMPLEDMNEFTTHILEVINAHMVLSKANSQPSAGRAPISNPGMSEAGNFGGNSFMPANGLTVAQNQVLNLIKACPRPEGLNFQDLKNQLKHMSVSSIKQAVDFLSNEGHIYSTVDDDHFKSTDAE
UniProt P06753, whole entry: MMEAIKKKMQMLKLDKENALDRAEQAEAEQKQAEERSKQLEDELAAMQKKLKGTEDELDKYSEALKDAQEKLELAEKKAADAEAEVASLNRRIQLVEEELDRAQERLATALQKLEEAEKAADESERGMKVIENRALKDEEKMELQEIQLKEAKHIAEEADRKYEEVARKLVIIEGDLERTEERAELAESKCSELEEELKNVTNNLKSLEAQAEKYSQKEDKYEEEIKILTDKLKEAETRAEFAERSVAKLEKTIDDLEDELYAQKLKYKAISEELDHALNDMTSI
UniProt P00387: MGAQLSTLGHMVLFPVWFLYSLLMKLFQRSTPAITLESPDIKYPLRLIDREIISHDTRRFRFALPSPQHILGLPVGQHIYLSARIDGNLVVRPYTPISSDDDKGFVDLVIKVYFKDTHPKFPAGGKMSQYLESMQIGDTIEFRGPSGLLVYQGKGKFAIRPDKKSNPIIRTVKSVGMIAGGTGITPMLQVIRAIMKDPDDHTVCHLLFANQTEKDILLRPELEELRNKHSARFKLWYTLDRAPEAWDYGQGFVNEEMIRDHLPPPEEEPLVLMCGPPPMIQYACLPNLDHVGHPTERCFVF
UniProt P08134, whole entry: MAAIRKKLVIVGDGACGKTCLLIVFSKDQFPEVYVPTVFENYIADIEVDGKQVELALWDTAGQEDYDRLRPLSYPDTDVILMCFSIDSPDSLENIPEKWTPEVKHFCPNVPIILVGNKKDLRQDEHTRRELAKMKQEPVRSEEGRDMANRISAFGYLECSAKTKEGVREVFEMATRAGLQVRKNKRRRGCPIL
UniProt P09669, whole entry: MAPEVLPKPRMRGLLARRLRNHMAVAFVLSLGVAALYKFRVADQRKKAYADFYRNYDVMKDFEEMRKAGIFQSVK
UniProt P05114: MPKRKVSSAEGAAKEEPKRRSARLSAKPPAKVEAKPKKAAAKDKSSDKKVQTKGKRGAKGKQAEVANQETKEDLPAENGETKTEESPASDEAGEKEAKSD
UniProt P14543: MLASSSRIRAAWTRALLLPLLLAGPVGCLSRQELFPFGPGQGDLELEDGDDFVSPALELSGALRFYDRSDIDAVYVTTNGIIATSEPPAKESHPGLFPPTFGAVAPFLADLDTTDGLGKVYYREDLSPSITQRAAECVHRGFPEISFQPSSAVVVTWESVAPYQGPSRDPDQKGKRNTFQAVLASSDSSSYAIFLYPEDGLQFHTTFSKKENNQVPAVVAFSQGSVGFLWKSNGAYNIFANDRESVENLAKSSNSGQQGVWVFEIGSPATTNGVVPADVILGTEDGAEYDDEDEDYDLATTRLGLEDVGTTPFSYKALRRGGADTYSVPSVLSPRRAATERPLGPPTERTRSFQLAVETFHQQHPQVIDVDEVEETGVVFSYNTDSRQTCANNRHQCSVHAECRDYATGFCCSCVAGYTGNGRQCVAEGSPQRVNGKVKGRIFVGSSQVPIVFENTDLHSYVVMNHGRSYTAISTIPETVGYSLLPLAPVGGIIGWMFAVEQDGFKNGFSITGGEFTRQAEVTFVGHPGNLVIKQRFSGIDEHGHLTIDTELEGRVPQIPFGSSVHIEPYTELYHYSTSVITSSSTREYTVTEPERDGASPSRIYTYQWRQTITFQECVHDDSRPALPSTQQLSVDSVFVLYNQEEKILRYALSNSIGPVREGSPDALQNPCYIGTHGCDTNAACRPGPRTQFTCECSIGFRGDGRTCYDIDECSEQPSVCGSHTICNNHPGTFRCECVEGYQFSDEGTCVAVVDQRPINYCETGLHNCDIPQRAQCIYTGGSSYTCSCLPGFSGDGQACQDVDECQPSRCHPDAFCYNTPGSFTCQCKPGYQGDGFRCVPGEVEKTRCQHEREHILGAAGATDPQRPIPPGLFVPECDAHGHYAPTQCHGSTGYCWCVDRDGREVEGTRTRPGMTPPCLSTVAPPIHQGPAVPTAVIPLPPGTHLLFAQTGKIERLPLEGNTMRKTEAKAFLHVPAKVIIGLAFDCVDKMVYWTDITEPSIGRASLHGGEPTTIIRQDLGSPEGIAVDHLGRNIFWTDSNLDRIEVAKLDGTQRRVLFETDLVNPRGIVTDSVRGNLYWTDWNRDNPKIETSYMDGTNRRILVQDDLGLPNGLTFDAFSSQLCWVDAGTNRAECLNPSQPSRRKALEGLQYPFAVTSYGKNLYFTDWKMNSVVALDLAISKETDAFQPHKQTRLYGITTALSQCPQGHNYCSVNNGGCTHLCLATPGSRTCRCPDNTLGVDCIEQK
UniProt P14316: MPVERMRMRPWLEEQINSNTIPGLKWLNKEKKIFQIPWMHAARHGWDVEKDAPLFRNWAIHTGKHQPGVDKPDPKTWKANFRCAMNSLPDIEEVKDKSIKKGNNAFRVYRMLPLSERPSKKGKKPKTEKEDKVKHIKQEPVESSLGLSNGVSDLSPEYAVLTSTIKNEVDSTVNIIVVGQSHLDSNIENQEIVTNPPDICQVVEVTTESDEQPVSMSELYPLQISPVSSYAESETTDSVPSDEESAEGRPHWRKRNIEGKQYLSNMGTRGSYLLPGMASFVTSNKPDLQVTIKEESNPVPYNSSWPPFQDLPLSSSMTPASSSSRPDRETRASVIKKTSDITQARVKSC
UniProt P14174: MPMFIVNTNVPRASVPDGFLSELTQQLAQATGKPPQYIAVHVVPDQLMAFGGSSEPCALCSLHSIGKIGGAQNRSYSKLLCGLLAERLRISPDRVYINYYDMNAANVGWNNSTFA
UniProt P10746: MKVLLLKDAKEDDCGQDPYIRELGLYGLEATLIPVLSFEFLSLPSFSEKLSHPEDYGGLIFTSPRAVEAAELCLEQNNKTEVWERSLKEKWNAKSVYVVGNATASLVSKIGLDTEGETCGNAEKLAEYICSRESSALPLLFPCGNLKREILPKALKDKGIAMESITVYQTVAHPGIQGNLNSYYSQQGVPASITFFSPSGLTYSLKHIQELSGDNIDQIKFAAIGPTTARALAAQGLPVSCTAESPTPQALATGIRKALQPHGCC
UniProt P04899, whole entry: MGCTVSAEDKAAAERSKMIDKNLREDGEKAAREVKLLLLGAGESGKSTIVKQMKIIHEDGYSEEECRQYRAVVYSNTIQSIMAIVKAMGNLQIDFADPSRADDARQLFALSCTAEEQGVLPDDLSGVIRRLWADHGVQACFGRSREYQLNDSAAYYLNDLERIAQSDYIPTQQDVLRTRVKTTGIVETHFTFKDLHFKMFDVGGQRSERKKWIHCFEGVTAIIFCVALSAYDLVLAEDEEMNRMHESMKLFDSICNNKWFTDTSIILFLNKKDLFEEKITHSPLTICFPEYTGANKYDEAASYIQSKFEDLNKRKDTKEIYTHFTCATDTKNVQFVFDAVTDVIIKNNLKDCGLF
UniProt P09693, whole entry: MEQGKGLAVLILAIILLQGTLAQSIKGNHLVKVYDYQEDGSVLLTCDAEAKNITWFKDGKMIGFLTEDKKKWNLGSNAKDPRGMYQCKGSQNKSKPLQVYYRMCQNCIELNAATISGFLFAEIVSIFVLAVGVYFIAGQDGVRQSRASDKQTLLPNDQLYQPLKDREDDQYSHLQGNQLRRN
UniProt P12235: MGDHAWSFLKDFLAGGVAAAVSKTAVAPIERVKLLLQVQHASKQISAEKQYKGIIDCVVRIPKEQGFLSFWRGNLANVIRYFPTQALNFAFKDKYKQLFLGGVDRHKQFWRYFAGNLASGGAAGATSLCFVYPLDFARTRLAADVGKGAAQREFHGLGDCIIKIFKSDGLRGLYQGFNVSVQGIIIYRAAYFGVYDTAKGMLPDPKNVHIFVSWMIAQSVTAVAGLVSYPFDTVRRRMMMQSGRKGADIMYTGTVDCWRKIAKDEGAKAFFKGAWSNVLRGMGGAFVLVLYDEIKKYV
UniProt P07686: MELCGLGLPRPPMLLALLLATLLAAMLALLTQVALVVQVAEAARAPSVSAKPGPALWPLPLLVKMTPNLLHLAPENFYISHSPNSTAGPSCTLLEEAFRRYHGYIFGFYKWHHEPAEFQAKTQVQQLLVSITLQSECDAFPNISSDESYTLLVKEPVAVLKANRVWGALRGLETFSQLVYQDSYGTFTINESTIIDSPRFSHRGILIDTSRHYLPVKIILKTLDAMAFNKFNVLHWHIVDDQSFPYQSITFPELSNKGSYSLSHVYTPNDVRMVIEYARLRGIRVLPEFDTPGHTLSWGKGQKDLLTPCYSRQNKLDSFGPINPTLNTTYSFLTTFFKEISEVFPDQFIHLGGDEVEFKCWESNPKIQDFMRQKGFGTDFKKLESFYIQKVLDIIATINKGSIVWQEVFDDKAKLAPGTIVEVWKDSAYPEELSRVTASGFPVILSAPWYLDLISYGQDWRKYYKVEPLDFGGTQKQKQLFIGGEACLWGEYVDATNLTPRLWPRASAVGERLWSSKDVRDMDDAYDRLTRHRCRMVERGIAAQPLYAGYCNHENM
UniProt P06730, whole entry: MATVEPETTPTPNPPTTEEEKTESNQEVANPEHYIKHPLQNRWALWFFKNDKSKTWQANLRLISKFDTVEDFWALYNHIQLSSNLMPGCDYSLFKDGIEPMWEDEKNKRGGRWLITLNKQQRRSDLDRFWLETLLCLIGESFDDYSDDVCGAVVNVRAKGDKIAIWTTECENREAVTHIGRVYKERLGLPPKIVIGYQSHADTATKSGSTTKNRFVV
UniProt P14151: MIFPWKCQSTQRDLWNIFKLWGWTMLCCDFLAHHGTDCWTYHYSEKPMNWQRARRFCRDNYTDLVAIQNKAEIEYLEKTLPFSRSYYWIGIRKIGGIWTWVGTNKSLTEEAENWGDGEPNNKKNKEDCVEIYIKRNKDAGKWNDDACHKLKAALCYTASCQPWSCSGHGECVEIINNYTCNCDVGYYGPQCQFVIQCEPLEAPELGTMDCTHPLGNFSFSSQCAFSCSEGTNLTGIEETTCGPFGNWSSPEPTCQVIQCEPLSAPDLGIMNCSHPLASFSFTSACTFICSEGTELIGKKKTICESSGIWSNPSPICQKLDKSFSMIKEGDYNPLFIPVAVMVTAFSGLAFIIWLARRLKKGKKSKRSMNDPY
UniProt P09622, whole entry: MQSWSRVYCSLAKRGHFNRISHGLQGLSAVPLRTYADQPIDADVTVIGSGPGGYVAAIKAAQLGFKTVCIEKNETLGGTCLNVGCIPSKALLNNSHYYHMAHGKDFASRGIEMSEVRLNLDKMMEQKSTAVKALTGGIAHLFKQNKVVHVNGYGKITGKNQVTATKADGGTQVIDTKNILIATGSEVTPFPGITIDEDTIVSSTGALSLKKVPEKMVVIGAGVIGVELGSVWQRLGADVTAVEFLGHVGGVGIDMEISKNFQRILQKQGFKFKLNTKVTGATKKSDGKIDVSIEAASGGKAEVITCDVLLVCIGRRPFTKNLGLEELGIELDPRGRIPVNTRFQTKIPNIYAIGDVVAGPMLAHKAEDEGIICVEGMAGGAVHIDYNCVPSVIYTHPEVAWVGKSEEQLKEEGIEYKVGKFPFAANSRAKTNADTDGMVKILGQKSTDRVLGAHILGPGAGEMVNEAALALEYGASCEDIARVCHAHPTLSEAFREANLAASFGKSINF

Compound: Nc1ncnc2c1ncn2[C@@H]1O[C@H](COP(=O)(O)OP(=O)(O)NP(=O)(O)O)[C@@H](O)[C@H]1O [adenylyl imidodiphosphate]
Assay: NP40-soluble protein abundance relative to vehicle (solubility fold change) (ratio); higher = more soluble protein in presence of AMP-PNP
Summary of the method: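 In three independent experiments, Jurkat crude lysate made by Dounce homogenisation was treated for 10 min at room temperature and then 3 min at 37 °C with eight concentrations ranging from 0.1 to 10 mM. It was then solubilised with 0.8% NP40 plus benzonase for 60 min at 4 °C and ultracentrifuged. The supernatant was TMT-labelled for LC-MS/MS, and each value is the fold change against the detergent-processed vehicle for the same replicate, using vsn-normalised intensities.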

Target	NP40-soluble protein abundance (concentration: 1mM)	NP40-soluble protein abundance (concentration: 2mM)	NP40-soluble protein abundance (concentration: 4mM)	NP40-soluble protein abundance (concentration: 6mM)	NP40-soluble protein abundance (concentration: 8mM)	NP40-soluble protein abundance (concentration: 10mM)
UniProt P09497-2	0.99 ± 0.052	0.954 ± 0.082	0.904 ± 0.039	0.843 ± 0.046	0.816 ± 0.011	0.823 ± 0.05
UniProt P11586 and related entries	1 ± 0.019	0.969 ± 0.048	0.9734 ± 0.005	0.985 ± 0.026	0.968 ± 0.014	0.95 ± 0.028
P15531-2|P22392-2|Q32Q12 (UniProt Q32Q12+P22392+P15531)	0.979 ± 0.053	0.981 ± 0.14	0.967 ± 0.13	1.17 ± 0.25	1.2 ± 0.16	1.17 ± 0.23
RPN1 (UniProt P04843)	1 ± 0.015	0.959 ± 0.032	0.942 ± 0.021	0.951 ± 0.042	0.937 ± 0.028	0.927 ± 0.039
UniProt P15813	0.958 ± 0.037	0.947 ± 0.026	0.962 ± 0.035	1.02 ± 0.044	1.02 ± 0.028	1 ± 0.045
H1F0 (UniProt P07305)	1.05 ± 0.021	1.05 ± 0.021	1.03 ± 0.016	1.074 ± 0.0051	1.01 ± 0.021	1.0745 ± 0.00041
HIST1H1C (UniProt P16403)	1.02 ± 0.05	1.13 ± 0.042	1.07 ± 0.023	1.17 ± 0.06	1.2 ± 0.095	1.54 ± 0.15
P0CAP2 and related entries (UniProt Q6EEV4+P0CAP2)	0.993 ± 0.062	1.0822 ± 0.00086	0.993 ± 0.053	0.935 ± 0.011	0.935 ± 0.017	0.963 ± 0.015
HMGB1 (UniProt P09429)	1.06 ± 0.085	1.19 ± 0.16	1.06 ± 0.11	1.11 ± 0.086	1.17 ± 0.045	1.19 ± 0.067
UniProt P07437	1 ± 0.024	0.938 ± 0.027	0.948 ± 0.025	0.886 ± 0.036	0.87 ± 0.026	0.885 ± 0.01
LCP1 (UniProt P13796)	0.939 ± 0.066	0.926 ± 0.018	0.908 ± 0.059	0.936 ± 0.018	0.978 ± 0.024	0.913 ± 0.035
UniProt P04921 and related entries	1.09 ± 0.078	1.17 ± 0.059	1.068 ± 0.0068	1.17 ± 0.068	1.09 ± 0.062	1.12 ± 0.032
UniProt P15927 and related entries	0.987 ± 0.013	1.03 ± 0.035	0.988 ± 0.017	1.01 ± 0.015	0.983 ± 0.03	1.02 ± 0.017
UniProt P06753-2|P06753-3|P06753-5|P06753-6|J3KN67	1.14 ± 0.11	1.28 ± 0.2	1.19 ± 0.21	1.25 ± 0.23	1.21 ± 0.12	1.07 ± 0.14
GAPDH (UniProt P04406)	1.05 ± 0.032	0.987 ± 0.022	0.9925 ± 0.0085	0.9939 ± 0.006	0.9951 ± 0.0052	1.02 ± 0.021
UniProt O95793 and related entries	1.04 ± 0.0038	1.05 ± 0.043	1.09 ± 0.029	1.143 ± 0.0097	1.19 ± 0.021	1.28 ± 0.038
LATS1 (UniProt O95835)	1.03 ± 0.041	1.01 ± 0.037	1.01 ± 0.032	1 ± 0.0023	1.03 ± 0.034	1.02 ± 0.036
UniProt P00387 and related entries	0.941 ± 0.044	0.867 ± 0.081	0.966 ± 0.047	0.992 ± 0.089	1.05 ± 0.05	0.983 ± 0.054
UniProt P08134 and related entries	1.04 ± 0.062	0.998 ± 0.04	1.05 ± 0.082	1.06 ± 0.13	1.1 ± 0.067	1.13 ± 0.11
COX6C (UniProt P09669)	0.899 ± 0.13	0.908 ± 0.084	0.877 ± 0.066	0.822 ± 0.075	0.838 ± 0.047	0.785 ± 0.09
HMGN1 (UniProt P05114)	1.23 ± 0.1	1.36 ± 0.18	1.28 ± 0.074	1.57 ± 0.15	1.54 ± 0.16	1.89 ± 0.36
ITGA5 (UniProt P08648)	1.02 ± 0.015	1.06 ± 0.089	1.06 ± 0.028	0.989 ± 0.056	1.02 ± 0.025	1.01 ± 0.043
UniProt O96019 and related entries	1.02 ± 0.069	1.01 ± 0.066	1.02 ± 0.054	1.01 ± 0.089	0.987 ± 0.066	0.974 ± 0.11
UniProt P10747 and related entries	0.99 ± 0.011	0.9921 ± 0.0083	0.9829 ± 0.008	1.027 ± 0.0094	1.03 ± 0.021	1.01 ± 0.037
UniProt P15812 and related entries	0.971 ± 0.011	0.965 ± 0.023	0.962 ± 0.011	1.01 ± 0.037	1.03 ± 0.052	1.03 ± 0.046
ETFA (UniProt P13804)	0.9899 ± 0.0064	0.9816 ± 0.0097	1.002 ± 0.0035	1.05 ± 0.041	1.04 ± 0.036	1.04 ± 0.028

Target	NP40-soluble protein abundance (concentration: 1mM)	NP40-soluble protein abundance (concentration: 2mM)	NP40-soluble protein abundance (concentration: 4mM)	NP40-soluble protein abundance (concentration: 6mM)	NP40-soluble protein abundance (concentration: 8mM)	NP40-soluble protein abundance (concentration: 10mM)
HMGN2 (UniProt P05204)	1.06 ± 0.04	1.15 ± 0.12	1.09 ± 0.05	1.25 ± 0.081	1.16 ± 0.21	1.54 ± 0.28
VIM (UniProt P08670)	1 ± 0.042	1.04 ± 0.032	0.945 ± 0.073	0.923 ± 0.061	0.864 ± 0.082	0.884 ± 0.11
UniProt O95758-6|O95758-1	1 ± 0.041	1.04 ± 0.074	1.01 ± 0.063	0.99 ± 0.047	1.01 ± 0.044	1 ± 0.064
UniProt O96028 and related entries	1.08 ± 0.034	1.16 ± 0.026	1.23 ± 0.033	1.32 ± 0.044	1.35 ± 0.03	1.47 ± 0.059
ACAA1 (UniProt P09110)	0.993 ± 0.012	0.975 ± 0.021	1 ± 0.024	0.9983 ± 0.0097	0.991 ± 0.014	0.99 ± 0.023
QDPR (UniProt P09417)	0.985 ± 0.017	0.975 ± 0.015	0.9678 ± 0.0091	1.02 ± 0.036	0.991 ± 0.024	1.02 ± 0.044
UniProt P14543	0.862 ± 0.086	0.769 ± 0.13	0.815 ± 0.1	0.867 ± 0.073	0.855 ± 0.05	0.849 ± 0.12
NRAS (UniProt P01111)	1.07 ± 0.062	1.08 ± 0.11	1.04 ± 0.08	0.977 ± 0.034	1.01 ± 0.043	0.975 ± 0.09
UniProt P14859 and related entries	1.06 ± 0.033	1.13 ± 0.16	1.04 ± 0.066	1.04 ± 0.026	1 ± 0.054	1.04 ± 0.045
AKR1B1 (UniProt P15121)	0.953 ± 0.046	0.867 ± 0.065	0.921 ± 0.038	0.999 ± 0.084	1.02 ± 0.046	0.946 ± 0.037
UniProt P14316 and related entries	1.02 ± 0.055	1.08 ± 0.11	1.07 ± 0.036	1.08 ± 0.049	1.09 ± 0.033	1.1 ± 0.046
TOMM40 (UniProt O96008)	0.99 ± 0.023	0.976 ± 0.016	0.984 ± 0.027	1.04 ± 0.07	1.06 ± 0.021	1.042 ± 0.0058
FBXO45 (UniProt P0C2W1)	0.976 ± 0.035	0.971 ± 0.031	0.967 ± 0.025	1.01 ± 0.024	1 ± 0.041	0.995 ± 0.048
MIF (UniProt P14174)	0.956 ± 0.052	0.939 ± 0.014	0.988 ± 0.049	1.05 ± 0.13	1.08 ± 0.098	1.07 ± 0.073
UROS (UniProt P10746)	1.04 ± 0.012	1.03 ± 0.015	1 ± 0.045	0.99 ± 0.029	0.975 ± 0.051	0.982 ± 0.075
GNAI2 (UniProt P04899)	0.972 ± 0.02	0.906 ± 0.11	0.935 ± 0.035	0.97 ± 0.038	0.998 ± 0.057	0.923 ± 0.034
UniProt P09693	1 ± 0.045	1.03 ± 0.1	0.979 ± 0.058	1 ± 0.025	0.997 ± 0.051	0.998 ± 0.018
SLC25A4 (UniProt P12235)	0.965 ± 0.02	0.922 ± 0.086	0.9657 ± 0.0077	0.978 ± 0.046	0.985 ± 0.04	0.996 ± 0.019
UMPS (UniProt P11172)	0.99 ± 0.028	0.912 ± 0.093	0.954 ± 0.024	0.96 ± 0.036	0.969 ± 0.025	0.919 ± 0.049
PYGB (UniProt P11216)	1.06 ± 0.1	1.09 ± 0.15	1.35 ± 0.14	1.43 ± 0.17	1.54 ± 0.24	1.47 ± 0.24
HEXB (UniProt P07686)	1.02 ± 0.039	1.02 ± 0.077	1 ± 0.053	1.01 ± 0.054	1.01 ± 0.026	1.01 ± 0.031
PGK1 (UniProt P00558)	0.94 ± 0.17	0.938 ± 0.15	0.981 ± 0.12	0.831 ± 0.071	0.989 ± 0.097	0.872 ± 0.11
UniProt P06730 and related entries	1.08 ± 0.029	1.05 ± 0.024	1.1 ± 0.046	1.06 ± 0.036	1.12 ± 0.07	1.07 ± 0.029
UniProt P14151 and related entries	1.05 ± 0.011	1.14 ± 0.16	1.04 ± 0.041	1.06 ± 0.03	1.06 ± 0.032	1.07 ± 0.036
DLD (UniProt P09622)	0.99 ± 0.057	0.963 ± 0.11	0.983 ± 0.069	0.993 ± 0.072	1.01 ± 0.072	1 ± 0.08

Some of the entries so far, in CSV form.
Target,NP40-soluble protein abundance (concentration: 1mM),NP40-soluble protein abundance (concentration: 2mM),NP40-soluble protein abundance (concentration: 4mM),NP40-soluble protein abundance (concentration: 6mM),NP40-soluble protein abundance (concentration: 8mM),NP40-soluble protein abundance (concentration: 10mM)
UniProt P15813,0.958 ± 0.037,0.947 ± 0.026,0.962 ± 0.035,1.02 ± 0.044,1.02 ± 0.028,1 ± 0.045
HMGB1 (UniProt P09429),1.06 ± 0.085,1.19 ± 0.16,1.06 ± 0.11,1.11 ± 0.086,1.17 ± 0.045,1.19 ± 0.067
UniProt P06753-2|P06753-3|P06753-5|P06753-6|J3KN67,1.14 ± 0.11,1.28 ± 0.2,1.19 ± 0.21,1.25 ± 0.23,1.21 ± 0.12,1.07 ± 0.14
HEXB (UniProt P07686),1.02 ± 0.039,1.02 ± 0.077,1 ± 0.053,1.01 ± 0.054,1.01 ± 0.026,1.01 ± 0.031
